At least one peptide structure holds a part that was inferred or is arguable (an end, a ring closure or a residue). Some entries repeat one wording, which the source may state once for all of them. Non-standard residues stand in square brackets, D forms with d. Residues, ends and D or L forms follow the SMILES beside them. *: point of attachment. Biotin = O=C1N[C@H]2[C@H](CS[C@H]2CCCCC(=O)*)N1; pY = N[C@@H](Cc1ccc(OP(=O)(O)O)cc1)C(=O)O; Ahx = NCCCCCC(=O)O
Experiments:
Stat3-E638P = target: T1, Stat3-E638P (Homo sapiens, UniProt P40763, E638P); test: Phosphopeptide affinity immunoblot (peptide pull-down); format: binding
T1 construct: made in house; host or cells: Sf9 insect cells (baculovirus)
Protocol: (§1) NeutrAvidin agarose (40 μl; Pierce) was incubated with 10 μg of biotinylated peptide in 300 μl of Buffer A (20 mM HEPES pH 7.5, 20 mM NaF, 1 mM Na3VO4, 1 mM Na4P2O7, 1 mM EDTA, 1 mM EGTA, 20% glycerol, 0.05% NP-40, 1 mM DTT, 1 μg/ml leupeptin, 1 μg/ml aprotinin, 0.5 mM phenylmethylsulfonyl fluoride, 100 mM NaCl) at 4° C. for 2 h and washed with Buffer A 3 times. The NeutrAvidin-peptide complex was then mixed with His-tagged Stat3 protein (5 μg) in 1 ml of Buffer A (without NaCl and NP-40) at 4° C. for 2 h and washed thoroughly. Bound proteins were separated and immunoblotted using Stat3 monoclonal antibody (mAb).
In FIG. 5C, NeutrAvidin agarose was incubated with the indicated biotinylated dodecapeptides (see Table 2 for sequence) or no peptide (CON) as control, washed thoroughly and mixed with wild type Stat3 protein. Bound proteins were separated by SDS-PAGE and immunoblotted using Stat3 mAb. Lane ST represents purified wild type Stat3 (0.6 μg) loaded directly onto the gel as a positive control.
To test the contribution of the E638 amide hydrogen to binding to G-CSFR Y704 and Y744 phosphododecapeptide, Stat3-E638P was generated by site-directed mutagenesis, which eliminated the amide hydrogen donor predicted to bind with oxygen within the +3 Q side chain.

Amino acid sequences for entries named in this document (tags omitted).
UniProt P40763, whole entry E638P: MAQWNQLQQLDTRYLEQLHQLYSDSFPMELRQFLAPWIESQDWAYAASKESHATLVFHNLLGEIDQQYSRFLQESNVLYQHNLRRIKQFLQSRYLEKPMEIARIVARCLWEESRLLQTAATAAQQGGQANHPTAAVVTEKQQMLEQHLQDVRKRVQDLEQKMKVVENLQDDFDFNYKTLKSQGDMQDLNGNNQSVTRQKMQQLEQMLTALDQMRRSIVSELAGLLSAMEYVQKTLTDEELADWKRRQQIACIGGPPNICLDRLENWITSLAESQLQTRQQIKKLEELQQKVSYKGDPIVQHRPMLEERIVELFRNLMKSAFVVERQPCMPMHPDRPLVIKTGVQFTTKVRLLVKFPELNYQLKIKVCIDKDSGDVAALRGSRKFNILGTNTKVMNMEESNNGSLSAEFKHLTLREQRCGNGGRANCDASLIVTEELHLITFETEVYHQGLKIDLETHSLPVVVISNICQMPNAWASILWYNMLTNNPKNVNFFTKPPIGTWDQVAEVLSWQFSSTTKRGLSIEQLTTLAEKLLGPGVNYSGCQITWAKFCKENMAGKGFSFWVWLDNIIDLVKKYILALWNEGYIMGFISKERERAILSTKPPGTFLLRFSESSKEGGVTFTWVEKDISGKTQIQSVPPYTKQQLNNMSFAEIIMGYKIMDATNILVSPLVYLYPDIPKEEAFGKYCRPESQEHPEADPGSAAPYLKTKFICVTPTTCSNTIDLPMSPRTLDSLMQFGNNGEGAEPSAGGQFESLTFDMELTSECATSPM
UniProt P40763, whole entry R609L/E638L/Y640F/Y657F: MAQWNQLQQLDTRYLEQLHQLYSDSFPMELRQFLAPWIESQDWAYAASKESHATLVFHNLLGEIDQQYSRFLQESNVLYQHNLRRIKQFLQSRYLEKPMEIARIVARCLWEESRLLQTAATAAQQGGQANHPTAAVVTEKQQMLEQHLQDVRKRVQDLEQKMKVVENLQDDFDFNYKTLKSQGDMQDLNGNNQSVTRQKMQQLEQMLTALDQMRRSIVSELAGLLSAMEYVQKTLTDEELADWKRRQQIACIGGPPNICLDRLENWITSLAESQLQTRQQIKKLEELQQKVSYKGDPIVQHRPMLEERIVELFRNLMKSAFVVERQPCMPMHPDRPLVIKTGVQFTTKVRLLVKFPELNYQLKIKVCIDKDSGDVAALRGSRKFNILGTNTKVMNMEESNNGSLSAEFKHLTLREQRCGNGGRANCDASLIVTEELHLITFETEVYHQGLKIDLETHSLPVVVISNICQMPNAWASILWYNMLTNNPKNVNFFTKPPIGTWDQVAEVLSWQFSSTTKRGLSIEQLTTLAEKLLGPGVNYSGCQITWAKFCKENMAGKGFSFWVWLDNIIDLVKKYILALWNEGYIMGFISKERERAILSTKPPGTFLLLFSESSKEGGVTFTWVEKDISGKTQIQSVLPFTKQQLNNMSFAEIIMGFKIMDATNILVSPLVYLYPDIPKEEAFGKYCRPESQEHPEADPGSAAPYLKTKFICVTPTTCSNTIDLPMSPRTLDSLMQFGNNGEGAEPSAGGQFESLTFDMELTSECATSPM
UniProt P40763, whole entry K591L/E638L/Y640F/Y657F: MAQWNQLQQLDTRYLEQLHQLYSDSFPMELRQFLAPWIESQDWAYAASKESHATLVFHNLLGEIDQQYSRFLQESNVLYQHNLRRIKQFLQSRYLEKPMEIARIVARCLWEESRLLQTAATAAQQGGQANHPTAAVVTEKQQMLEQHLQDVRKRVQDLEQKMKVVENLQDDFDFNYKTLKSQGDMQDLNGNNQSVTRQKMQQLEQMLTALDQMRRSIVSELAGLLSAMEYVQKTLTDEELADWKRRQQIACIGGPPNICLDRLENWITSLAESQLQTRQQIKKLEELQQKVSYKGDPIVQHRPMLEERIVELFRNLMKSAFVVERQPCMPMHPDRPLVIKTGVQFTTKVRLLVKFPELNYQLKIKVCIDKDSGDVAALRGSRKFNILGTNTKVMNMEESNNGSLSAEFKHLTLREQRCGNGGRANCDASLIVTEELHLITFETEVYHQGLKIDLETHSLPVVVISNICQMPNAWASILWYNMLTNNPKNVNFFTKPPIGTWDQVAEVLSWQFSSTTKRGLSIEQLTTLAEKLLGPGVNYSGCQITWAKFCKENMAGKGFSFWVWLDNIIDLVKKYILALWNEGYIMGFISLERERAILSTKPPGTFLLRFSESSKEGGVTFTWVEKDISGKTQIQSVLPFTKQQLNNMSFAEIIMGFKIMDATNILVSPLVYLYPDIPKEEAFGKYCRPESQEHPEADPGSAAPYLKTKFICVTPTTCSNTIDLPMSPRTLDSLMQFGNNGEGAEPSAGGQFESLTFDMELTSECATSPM
UniProt P40763, whole entry E638L/Y640F/Y657F: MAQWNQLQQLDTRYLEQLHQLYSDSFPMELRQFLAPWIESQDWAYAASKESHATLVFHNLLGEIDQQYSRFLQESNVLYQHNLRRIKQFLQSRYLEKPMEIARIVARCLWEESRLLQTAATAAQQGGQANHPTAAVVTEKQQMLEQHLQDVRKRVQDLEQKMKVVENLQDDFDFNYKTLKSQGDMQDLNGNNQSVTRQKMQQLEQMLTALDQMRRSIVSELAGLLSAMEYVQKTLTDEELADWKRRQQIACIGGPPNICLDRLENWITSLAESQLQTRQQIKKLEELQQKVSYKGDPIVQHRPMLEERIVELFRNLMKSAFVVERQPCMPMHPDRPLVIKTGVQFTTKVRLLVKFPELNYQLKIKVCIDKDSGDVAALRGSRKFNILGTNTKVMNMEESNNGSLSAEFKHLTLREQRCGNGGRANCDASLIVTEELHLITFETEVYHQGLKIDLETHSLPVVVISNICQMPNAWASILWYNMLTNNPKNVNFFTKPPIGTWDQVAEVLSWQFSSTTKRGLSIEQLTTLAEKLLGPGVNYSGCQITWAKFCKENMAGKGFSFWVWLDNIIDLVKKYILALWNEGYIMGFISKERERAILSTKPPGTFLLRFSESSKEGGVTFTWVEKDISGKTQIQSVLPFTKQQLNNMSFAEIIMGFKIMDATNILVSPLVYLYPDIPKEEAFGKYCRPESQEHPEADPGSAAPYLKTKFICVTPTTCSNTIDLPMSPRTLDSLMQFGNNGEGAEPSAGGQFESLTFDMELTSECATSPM
UniProt P40763, whole entry Y657F/C687A/S691A/Q692L: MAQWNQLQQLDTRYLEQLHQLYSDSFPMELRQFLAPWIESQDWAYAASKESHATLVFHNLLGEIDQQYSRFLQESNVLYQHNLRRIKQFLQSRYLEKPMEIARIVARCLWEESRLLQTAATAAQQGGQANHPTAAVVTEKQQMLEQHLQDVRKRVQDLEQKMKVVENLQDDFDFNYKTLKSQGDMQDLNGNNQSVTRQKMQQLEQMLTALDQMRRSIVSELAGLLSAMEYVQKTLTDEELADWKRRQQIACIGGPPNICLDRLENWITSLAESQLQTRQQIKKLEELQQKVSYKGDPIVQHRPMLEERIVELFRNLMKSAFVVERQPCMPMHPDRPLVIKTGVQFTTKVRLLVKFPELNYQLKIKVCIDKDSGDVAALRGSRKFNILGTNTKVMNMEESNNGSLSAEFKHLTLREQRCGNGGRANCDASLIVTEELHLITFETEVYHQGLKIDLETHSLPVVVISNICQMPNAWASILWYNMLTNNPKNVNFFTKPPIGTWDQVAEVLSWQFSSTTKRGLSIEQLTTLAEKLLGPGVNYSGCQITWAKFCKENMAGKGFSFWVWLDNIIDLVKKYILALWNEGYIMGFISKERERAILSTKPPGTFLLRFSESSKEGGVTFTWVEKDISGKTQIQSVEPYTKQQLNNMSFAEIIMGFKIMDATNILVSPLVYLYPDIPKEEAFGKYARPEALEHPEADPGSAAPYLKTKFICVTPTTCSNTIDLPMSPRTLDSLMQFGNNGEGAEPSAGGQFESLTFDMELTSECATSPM
UniProt P40763, whole entry: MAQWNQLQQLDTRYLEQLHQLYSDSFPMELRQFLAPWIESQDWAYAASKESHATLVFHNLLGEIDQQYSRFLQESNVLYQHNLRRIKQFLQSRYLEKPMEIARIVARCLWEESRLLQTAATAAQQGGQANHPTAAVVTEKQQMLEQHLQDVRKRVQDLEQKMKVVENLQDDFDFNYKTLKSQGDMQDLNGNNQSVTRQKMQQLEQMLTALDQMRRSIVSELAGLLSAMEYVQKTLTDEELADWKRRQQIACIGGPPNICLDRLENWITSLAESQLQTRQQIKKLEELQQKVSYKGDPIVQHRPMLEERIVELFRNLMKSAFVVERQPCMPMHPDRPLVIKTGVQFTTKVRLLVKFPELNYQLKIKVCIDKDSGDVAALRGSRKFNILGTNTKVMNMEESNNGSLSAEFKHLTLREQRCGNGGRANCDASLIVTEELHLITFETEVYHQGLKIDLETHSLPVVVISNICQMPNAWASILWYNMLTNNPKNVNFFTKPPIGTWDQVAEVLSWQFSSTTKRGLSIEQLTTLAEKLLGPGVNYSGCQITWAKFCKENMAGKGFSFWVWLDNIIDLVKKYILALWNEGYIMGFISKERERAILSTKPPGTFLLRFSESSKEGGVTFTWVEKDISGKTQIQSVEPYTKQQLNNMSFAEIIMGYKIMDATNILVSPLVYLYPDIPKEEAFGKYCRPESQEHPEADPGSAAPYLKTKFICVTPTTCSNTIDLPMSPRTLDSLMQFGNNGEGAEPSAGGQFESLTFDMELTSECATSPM

Stat3-3M+R609L [1] = target: T2, Stat3-3M+R609L (Homo sapiens, UniProt P40763, E638L/R609L/Y640F/Y657F); test: Mirror resonance affinity assay (resonant mirror biosensor); format: binding
T2 construct: made in house; host or cells: Sf9 insect cells (baculovirus, pFastBac1)

Stat3-3M+K591L [2] = target: T3, Stat3-3M+K591L (Homo sapiens, UniProt P40763, E638L/K591L/Y640F/Y657F); test: as above; format: binding
T3 construct: made in house; host or cells: Sf9 insect cells (baculovirus, pFastBac1)

Stat3-3M = target: T4, Stat3-3M (Homo sapiens, UniProt P40763, E638L/Y640F/Y657F); test: as above; format: binding; details: for kass / kdiss: Stat3-3M binding to G-CSFR phosphododecapeptides
T4 construct: made in house; host or cells: Sf9 insect cells (baculovirus, pFastBac1)
Protocol: (§2) Kinetics experiments were performed using an lasys Auto+ resonant mirror biosensor (Affinity Sensor, Paramus, N.J.) (see Sadowski et. al, 1986). Briefly, two-welled cuvettes coated on the bottom of each well with biotin were purchased from Affinity Sensor and prepared for immobilization of biotinylated peptides by coating each surface with 0.04 mg/ml NeutrAvidin (Pierce) and washing with PBS-T (20 mM Na Phosphate, 0.05% Tween-20). Biotinylated peptide (5 μg) was added into each well—experimental peptide to one well and control peptide to the other—and change in arc seconds monitored simultaneously in both wells using the biosensor until stable followed by washing with PBS-T. Real-time binding of Stat3 was conducted at 25° C. at a stir speed of 70 for 10 min starting at the lowest concentration of Stat3. The wells were washed out with three changes of 60 μl PBS-T, and dissociation was allowed to proceed for 5 min. Each well bottom was regenerated by washing with […] of 100 mM formic acid for 2 min and equilibrated with PBS-T for the next round of association assay. Data were collected automatically and analyzed with the FASTplot and GraFit software (see Sheinerman et. al, 2003).
(§3) Mirror resonance affinity assay. Two cells of a biotin-coated cuvette pretreated with saturating amounts of NeutrAvidin. One well of the cuvette was pretreated with biotinylated phosphopeptide based on Y1068 (pY1068, left panel), while the other well was pretreated with biotinylated non-phosphorylated peptide Y1068 (Y1068, right panel) as a control for non-specific binding. Wild type or mutated Stat3 protein was added in the concentrations indicated to each of the two cells and mirror resonance measurements recorded continuously for 10 min as shown.

Stat3-4M = target: T5, Stat3-4M (Homo sapiens, UniProt P40763, C687A/Q692L/S691A/Y657F); test: Phosphopeptide affinity immunoblot (peptide pull-down); format: binding; details: compared with wild type Stat3
T5 construct: made in house; host or cells: Sf9 insect cells (baculovirus, pFastBac1)
Protocol: as §1
NeutrAvidin agarose was incubated with the indicated biotinylated peptides (see Table 2 for exemplary sequences) or no peptide (CON) as control, washed thoroughly and mixed with identical amounts of wild type or mutant Stat3 proteins as indicated. Bound proteins were separated by SDS-PAGE and immunoblotted using Stat3 mAb. Lane ST represents purified wild type Stat3 (0.6 μg) loaded directly onto the gel as positive control.
Stat3 proteins in which mutations were introduced to alter side chains from charged or polar to non-polar within amino acid residues were predicted in each model to be critical for Stat3 binding (FIG. 1B). The recombinant Stat3 proteins were expressed in Sf9 insect cells and purified to equivalent levels using Ni-NTA resin (FIG. 1C).

wild type Stat3 [3] = target: T6, wild type Stat3 (Homo sapiens, UniProt P40763); test: as above; format: binding; details: purified wild type Stat3
T6 construct: made in house; host or cells: Sf9 insect cells (baculovirus, pFastBac1)
Protocol: as §1
Each peptide was incubated with equal amounts of purified wild type Stat3 protein in peptide pull-down assays (FIG. 1). NeutrAvidin agarose was incubated with the indicated biotinylated peptides (see Table 2 for sequence) or no peptide (CON) as control, washed thoroughly and mixed with identical amount of wild type Stat3. Bound proteins were separated by SDS-PAGE and immunoblotted using Stat3 mAb. Lane ST represents purified wild type Stat3 (0.6 μg) loaded directly onto the gel as positive control. […] Thus, Q at the +3 position of Y1068 phosphopeptide is required for Stat3 binding and appears to be as important for Stat3 binding as phosphorylation on tyrosine. […]

Stat3-3M+K591L [4] = target: T3, Stat3-3M+K591L; test: as above; format: binding
Protocol: as §1
(§4) To test the pocket 1 component of the two models and to ensure that the peptide pull-down system was sufficiently sensitive to detect reduced binding of Stat3 containing mutations in pocket 2, either K591L or R609L was added to the 3M mutant to generate Stat3-3M+K591L and Stat3-3M+R609L.
(§5) To test the pocket 1 component of the two models and to ensure that our peptide pull-down system was sufficiently sensitive to detect reduced binding of Stat3 containing mutations in pocket 2, either K591L or R609L was added to the 3M mutant to generate Stat3-3M+K591L and Stat3-3M+R609L.

Stat3-3M+R609L [5] = target: T2, Stat3-3M+R609L; test: as above; format: binding
Protocol: as §1, §4, §5

wild type Stat3 [6] = target: T6, wild type Stat3; test: Mirror resonance affinity assay (resonant mirror biosensor); details: wild type Stat3 binding to G-CSFR phosphododecapeptides
Protocol: as §2, §3
To obtain quantitative kinetic information about the binding of Stat3 to G-CSFR Y704 and Y744 including association rates (kass), disassociation rates (kdiss) and dissociation equilibrium constants (KD), real-time affinity measurements using a mirror resonance biosensor were performed. The biosensor exploits surface plasmon resonance to measure in real time the alteration in the angle of a laser light reflected from a surface upon which binding events are occurring. Biotinylated peptides were immobilized onto the bottom surface of cuvette wells pre-coated with NeutrAvidin. The interaction of peptides with Stat3 added at different concentrations was measured in real time as altered deflection of a laser light striking the bottom surface of the cuvette; the alterations in the deflection angle measured in arc seconds was analyzed with GraFit software. […] The slightly lower KD for Y704 vs. Y744 is attributable to a faster association rate of Stat3 binding to this phosphododecapeptide.

## CC(C)C[C@H](NC(=O)[C@H](Cc1ccc(OP(=O)(O)O)cc1)NC(=O)[C@H](Cc1c[nH]cn1)NC(=O)CNC(=O)[C@@H]1CCCN1C(=O)CNC(=O)[C@@H]1CCCN1C(=O)CCCCCNC(=O)CCCC[C@@H]1SC[C@@H]2NC(=O)N[C@@H]21)C(=O)N[C@@H](CCCNC(=N)N)C(=O)N[C@@H](CS)C(=O)N[C@@H](CC(=O)O)C(=O)N[C@@H](CO)C(=O)N[C@H](C(=O)O)[C@@H](C)O [compound 744, PGPGHpYLRCDST] ({Biotin-Ahx}-PGPGH[pY]LRCDST-OH)
Stat3-E638P
  binding of Stat3-E638P in peptide affinity immunoblot: no binding
Stat3-3M+R609L [1]
  binding in real-time mirror resonance affinity curves: low
Stat3-3M+K591L [2]
  binding in real-time mirror resonance affinity curves: undetectable
Stat3-3M
  kass: 1470 ± 716 ^d M^−1s^−1
  kdiss: 2.1 ± 0.7 ms^−1
Stat3-4M
  level of Stat3-4M bound in peptide affinity immunoblot: equivalent to wild type Stat3
Wild type Stat3 [3]
  Stat3 detected in peptide pull-down (Stat3 immunoblot): prominent Stat3 band
Stat3-3M+K591L [4]
  binding of Stat3-3M+K591L in peptide pull-down: elimination of binding
Stat3-3M+R609L [5]
  binding of Stat3-3M+R609L in peptide pull-down: elimination of binding
Wild type Stat3 [6]
  kass: 1413 ± 324 ^d M^−1s^−1
  kdiss: 1.4 ± 0.4 ms^−1

## CC(C)C[C@H](NC(=O)[C@@H](NC(=O)[C@H](Cc1ccc(OP(=O)(O)O)cc1)NC(=O)[C@@H](NC(=O)[C@H](CCC(N)=O)NC(=O)[C@@H](NC(=O)[C@H](CC(C)C)NC(=O)[C@@H](NC(=O)CCCCCNC(=O)CCCC[C@@H]1SC[C@@H]2NC(=O)N[C@@H]21)[C@@H](C)O)C(C)C)[C@@H](C)O)C(C)C)C(=O)N[C@@H](CCC(N)=O)C(=O)NCC(=O)N[C@@H](CC(=O)O)C(=O)N1CCC[C@H]1C(=O)O [compound 704, TLVQTpYVLQGDP] ({Biotin-Ahx}-TLVQT[pY]VLQGDP-OH)
Stat3-E638P
  binding of Stat3-E638P in peptide affinity immunoblot: no binding
Stat3-3M+R609L [1]
  binding in real-time mirror resonance affinity curves: low
Stat3-3M+K591L [2]
  binding in real-time mirror resonance affinity curves: undetectable
Stat3-3M
  kass: 1503 ± 208 ^d M^−1s^−1
  kdiss: 1.9 ± 0.3 ms^−1
Stat3-3M; Stat3-3M vs wild type Stat3
  KD increased compared to wild type Stat3: 72%
Stat3-4M
  level of Stat3-4M bound in peptide affinity immunoblot: equivalent to wild type Stat3
Wild type Stat3 [3]
  Stat3 detected in peptide pull-down (Stat3 immunoblot): prominent Stat3 band
Stat3-3M+K591L [4]
  binding of Stat3-3M+K591L in peptide pull-down: elimination of binding
Stat3-3M+R609L [5]
  binding of Stat3-3M+R609L in peptide pull-down: elimination of binding
Wild type Stat3 [6]
  kass: 2298 M⁻¹ s⁻¹
  kdiss: 1.6 ms^−1

Source: patent publication US20060148715A1, “Structural requirements for STAT3 binding and recruitment to phosphotyrosine ligands” (BAYLOR COLLEGE OF MEDICINE, priority 2004, published 2006)
